Laboratory results reported in the supplement of paper PMC4604168 (melanoma cell lines).
This is one part of the list. Many values rest on one well or one pass, so single values are uncertain.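 Imaging used 1,536-well plates; nuclei positive for cleaved PARP by antibody were divided by total DNA-stained nuclei to yield the apoptosis fraction. Doses for screening kept most cells viable, and cell lines differ markedly in resting and induced cleaved-PARP levels.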

Columns and labels:
Experiment in all cases: cleaved PARP positive nuclei fraction relative to DMSO control; melanoma cells; higher = more apoptosis
Details in all cases: library dose: low library concentration; 72 h
MeWo = test system: MeWo
RPMI7951 = test system: RPMI7951
RVH-421 = test system: RVH-421
SkMel28 = test system: SkMel28
SkMel2 = test system: SkMel2
SkMel30 = test system: SkMel30
SkMel5 = test system: SkMel5
UACC257 = test system: UACC257
UACC62 = test system: UACC62
WM115 = test system: WM115
WM1716 = test system: WM1716
WM1745 = test system: WM1745
WM3526 = test system: WM3526
WM3619 = test system: WM3619
WM451Lu = test system: WM451Lu
MZ2-MEL = test system: MZ2-MEL

Structure (SMILES) | cleaved PARP positive nuclei fraction (MeWo) [%] | cleaved PARP positive nuclei fraction (RPMI7951) [%] | cleaved PARP positive nuclei fraction (RVH-421) [%] | cleaved PARP positive nuclei fraction (SkMel28) [%] | cleaved PARP positive nuclei fraction (SkMel2) [%] | cleaved PARP positive nuclei fraction (SkMel30) [%] | cleaved PARP positive nuclei fraction (SkMel5) [%] | cleaved PARP positive nuclei fraction (UACC257) [%] | cleaved PARP positive nuclei fraction (UACC62) [%] | cleaved PARP positive nuclei fraction (WM115) [%] | cleaved PARP positive nuclei fraction (WM1716) [%] | cleaved PARP positive nuclei fraction (WM1745) [%] | cleaved PARP positive nuclei fraction (WM3526) [%] | cleaved PARP positive nuclei fraction (WM3619) [%] | cleaved PARP positive nuclei fraction (WM451Lu) [%] | cleaved PARP positive nuclei fraction (MZ2-MEL) [%]
Nc1ccn([C@@H]2O[C@H](CO)[C@@H](O)C2(F)F)c(=O)n1 [gemcitabine] + Cn1cc(/C=C2\C(=O)Nc3cccnc32)c2ccccc21 [GW441756] (first compound 0.0004 µM, partner dose 0.4 µM) | 98.7 | 72.8 | 157 | 110 | 85 | 192 | 370 | 207 | 109 | 140 | 48.5 | 99.2 | 31.2 | 105 | 59.9 | –
CO[C@H]1C[C@@H]2CC[C@@H](C)[C@@](O)(O2)C(=O)C(=O)N2CCCC[C@H]2C(=O)O[C@H]([C@H](C)C[C@@H]2CC[C@@H](OCCO)[C@H](OC)C2)CC(=O)[C@H](C)/C=C(\C)[C@@H](O)[C@@H](OC)C(=O)[C@H](C)C[C@H](C)/C=C/C=C/C=C/1C [everolimus] + CC(=O)c1c(C)c2cnc(Nc3ccc(N4CCNCC4)cn3)nc2n(C2CCCC2)c1=O [palbociclib] (first compound 0.02 µM, partner dose 0.04 µM) | 177 | 88.6 | 277 | 240 | – | 172 | – | – | 271 | 46.3 | 217 | 131 | 257 | 307 | 319 | 124
CO[C@H]1C[C@@H]2CC[C@@H](C)[C@@](O)(O2)C(=O)C(=O)N2CCCC[C@H]2C(=O)O[C@H]([C@H](C)C[C@@H]2CC[C@@H](OCCO)[C@H](OC)C2)CC(=O)[C@H](C)/C=C(\C)[C@@H](O)[C@@H](OC)C(=O)[C@H](C)C[C@H](C)/C=C/C=C/C=C/1C [everolimus] + Cn1nnc2c(C(N)=O)ncn2c1=O [temozolomide] (first compound 0.02 µM, partner dose 2 µM) | 104 | 91.4 | 103 | 114 | – | 32.6 | – | – | 133 | 60.7 | 45 | 133 | 204 | 159 | 48.6 | 33.7
CS(=O)(=O)CCNCc1ccc(-c2ccc3ncnc(Nc4ccc(OCc5cccc(F)c5)c(Cl)c4)c3c2)o1 [lapatinib] + O=c1cc(-c2cccc3c2Sc2ccccc2S3)oc(N2CCOCC2)c1 [KU55933] (first compound 0.8 µM, partner dose 1 µM) | 135 | 116 | 64.4 | 21.5 | 49.8 | 77.4 | 86.5 | 93.3 | 91.8 | 159 | 141 | 89.3 | 92.9 | 96.6 | 145 | –
CO[C@H]1C[C@@H]2CC[C@@H](C)[C@@](O)(O2)C(=O)C(=O)N2CCCC[C@H]2C(=O)O[C@H]([C@H](C)C[C@@H]2CC[C@@H](OCCO)[C@H](OC)C2)CC(=O)[C@H](C)/C=C(\C)[C@@H](O)[C@@H](OC)C(=O)[C@H](C)C[C@H](C)/C=C/C=C/C=C/1C [everolimus] + C#Cc1cccc(Nc2ncnc3cc(OCCOC)c(OCCOC)cc23)c1 [erlotinib] (first compound 0.02 µM, partner dose 0.8 µM) | 139 | 118 | 114 | 194 | – | 174 | – | – | 226 | 154 | 359 | 115 | 48.1 | 96.7 | 71.8 | 45.7
Cc1cc(Nc2cc(N3CCN(C)CC3)nc(/C=C/c3ccccc3)n2)n[nH]1 + Nc1cccc2c1CN(C1CCC(=O)NC1=O)C2=O [lenalidomide] (first compound 0.04 µM, partner dose 1 µM) | 113 | 102 | 59.9 | 37.9 | – | 138 | – | – | 49.1 | 71.8 | 70.6 | 95.6 | 43.8 | 204 | 44 | 185
CC(C)C[C@H](NC(=O)[C@H](Cc1ccccc1)NC(=O)c1cnccn1)B(O)O [Bortezomib] + CO[C@H]1C[C@@H]2CC[C@@H](C)[C@@](O)(O2)C(=O)C(=O)N2CCCC[C@H]2C(=O)O[C@H]([C@H](C)C[C@@H]2CC[C@@H](OCCO)[C@H](OC)C2)CC(=O)[C@H](C)/C=C(\C)[C@@H](O)[C@@H](OC)C(=O)[C@H](C)C[C@H](C)/C=C/C=C/C=C/1C [everolimus] (first compound 0.001 µM, partner dose 0.02 µM) | 184 | 161 | 239 | 1000 | – | 72.2 | – | – | 725 | 205 | 687 | 211 | 62.5 | 244 | 255 | 212
O=C(O)c1ccc2c(c1)nc(Nc1cccc(Cl)c1)c1ccncc12 + C=CCn1c(=O)c2cnc(Nc3ccc(N4CCN(C)CC4)cc3)nc2n1-c1cccc(C(C)(C)O)n1 [MK1775] (first compound 0.4 µM, partner dose 0.02 µM) | 53.7 | 97.6 | 104 | 128 | 125 | 76.9 | 161 | 37.4 | 113 | 79.2 | 273 | 102 | 63 | 142 | 118 | –
CNC(=O)c1cc(Oc2ccc(NC(=O)Nc3ccc(Cl)c(C(F)(F)F)c3)cc2)ccn1 [sorafenib] + Nc1ccn([C@@H]2O[C@H](CO)[C@@H](O)C2(F)F)c(=O)n1 [gemcitabine] (first compound 0.4 µM, partner dose 0.0004 µM) | 56.2 | 45.3 | 37.8 | 149 | 85.8 | 67 | – | – | 120 | 189 | 66 | 99.2 | 82.5 | 111 | 76.8 | –
